Patent US20100056431A1 (priority 2006, published 2010)
End groups of sequences in plain letters are not given here.

Assay: peptide made by a vendor
Settings: whole synthesis

## LLGDFFRKSKEKIGKEFKRIVQRIKDFLRNLVPRTES
  final purity (method not given): 98%
